No constants are given. Whether binding was seen depends on the method and setting. Binding seen in cells or lysates may run through a third protein. These calls come from enrichment with a bait or labelling near it, and not all partners need be listed. One block for each molecule: values may come before it.
Target: Flag-tagged retinoic acid induced 16 (RAI16), full length (UniProt Q86V87)
Experiment: affinity purification with mass spectrometry; lysates of HEK293T cells expressing Flag-tagged RAI16, anti-Flag immunoprecipitation, associated proteins identified by tandem (MS/MS) mass spectrometry (LTQ Orbitrap)

The chains behind the UniProt entries cited, without tags or fusion partners.
UniProt Q86V87: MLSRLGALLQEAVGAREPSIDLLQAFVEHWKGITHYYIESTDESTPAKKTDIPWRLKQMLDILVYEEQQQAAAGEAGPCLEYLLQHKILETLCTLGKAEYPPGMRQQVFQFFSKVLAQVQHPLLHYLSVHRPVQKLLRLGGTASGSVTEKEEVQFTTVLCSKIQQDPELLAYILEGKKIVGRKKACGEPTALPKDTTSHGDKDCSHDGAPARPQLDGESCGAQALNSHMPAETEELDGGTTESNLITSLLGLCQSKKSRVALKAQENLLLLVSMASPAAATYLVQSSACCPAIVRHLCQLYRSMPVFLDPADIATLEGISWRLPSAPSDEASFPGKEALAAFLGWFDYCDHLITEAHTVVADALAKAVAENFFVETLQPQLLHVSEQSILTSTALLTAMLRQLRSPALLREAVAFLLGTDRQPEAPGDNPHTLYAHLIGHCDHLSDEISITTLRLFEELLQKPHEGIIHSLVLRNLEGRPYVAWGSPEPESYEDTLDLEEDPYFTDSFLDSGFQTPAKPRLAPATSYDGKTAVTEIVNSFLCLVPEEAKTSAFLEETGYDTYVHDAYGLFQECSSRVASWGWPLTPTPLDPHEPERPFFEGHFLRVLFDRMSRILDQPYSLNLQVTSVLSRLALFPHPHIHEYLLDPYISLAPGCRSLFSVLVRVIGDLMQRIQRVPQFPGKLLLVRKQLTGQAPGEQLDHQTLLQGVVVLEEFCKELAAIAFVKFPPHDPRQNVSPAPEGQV

binding: binds
Molecule: endogenous PKA-RIIα (from UniProt P13861-1 1-404)

binding: binds
B1: endogenous 14-3-3θ (natural protein, human (endogenous in HEK293T), UniProt P27348 1-245, looked up)
chain: MEKTELIQKAKLAEQAERYDDMATCMKAVTEQGAELSNEERNLLSVAYKNVVGGRRSAWRVISSIEQKTDTSDKKLQLIKDYREKVESELRSICTTVLELLDKYLIANATNPESKVFYLKMKGDYFRYLAEVACGDDRKQTIDNSQGAYQEAFDISKKEMQPTHPIRLGLALNFSVFYYEILNNPELACTLAKTAFDEAIAELDTLNEDSYKDSTLIMQLLRDNLTLWTSDSAGEECDAAEGAEN
notes: 14-3-3 protein theta, endogenous in HEK293T cells; source: endogenous, HEK293T lysate
